Test results published in paper PMC5433425 (PeerJ, 2017).
This continues a long series; more values of the same kind are listed elsewhere.

Key:
Assay in all cases: EtBr efflux by real-time fluorometry
E. coli AG100tet = conditions: 80 µM, + glucose
E. coli AG100A = conditions: 20 µM, + glucose
E. coli AG100 = conditions: 80 µM

CN(C)CCCN1c2ccccc2Sc2ccc(Cl)cc21 [CPZ, chlorpromazine]
Fluorescence raw data, Channel Cycling A.530/585hp (E. coli AG100tet; cycle 4): 6.339 | Fluorescence raw data, Channel Cycling A.530/585hp (E. coli AG100tet; cycle 5): 6.387 | Fluorescence raw data, Channel Cycling A.530/585hp (E. coli AG100tet; cycle 6): 6.286 | Fluorescence raw data, Channel Cycling A.530/585hp (E. coli AG100tet; cycle 7): 6.432 | Fluorescence raw data, Channel Cycling A.530/585hp (E. coli AG100tet; cycle 8): 6.329 | Fluorescence raw data, Channel Cycling A.530/585hp (E. coli AG100tet; cycle 45): 6.719 | Fluorescence raw data, Channel Cycling A.530/585hp (E. coli AG100tet; cycle 46): 6.778 | Fluorescence raw data, Channel Cycling A.530/585hp (E. coli AG100tet; cycle 47): 6.757 | Fluorescence raw data, Channel Cycling A.530/585hp (E. coli AG100tet; cycle 48): 6.7446 | Fluorescence raw data, Channel Cycling A.530/585hp (E. coli AG100tet; cycle 49): 6.678 | Fluorescence raw data, Channel Cycling A.530/585hp (E. coli AG100tet; cycle 50): 6.568 | Fluorescence raw data, Channel Cycling A.530/585hp (E. coli AG100tet; cycle 51): 6.617 | Fluorescence raw data, Channel Cycling A.530/585hp (E. coli AG100tet; cycle 52): 6.557 | Fluorescence raw data, Channel Cycling A.530/585hp (E. coli AG100tet; cycle 53): 6.518 | Fluorescence raw data, Channel Cycling A.530/585hp (E. coli AG100tet; cycle 54): 6.561 | Fluorescence raw data, Channel Cycling A.530/585hp (E. coli AG100tet; cycle 55): 6.5737 | Fluorescence raw data, Channel Cycling A.530/585hp (E. coli AG100tet; cycle 56): 6.573 | Fluorescence raw data, Channel Cycling A.530/585hp (E. coli AG100tet; cycle 57): 6.507 | Fluorescence raw data, Channel Cycling A.530/585hp (E. coli AG100tet; cycle 58): 6.443 | Fluorescence raw data, Channel Cycling A.530/585hp (E. coli AG100tet; cycle 59): 6.441 | Fluorescence raw data, Channel Cycling A.530/585hp (E. coli AG100tet; cycle 60): 6.434 | Fluorescence raw data, Channel Cycling A.530/585hp (E. coli AG100tet; cycle 61): 6.331 | EtBr fluorescence (Channel Cycling A.530/585hp) (E. coli AG100A; cycle 4): 3.646 | EtBr fluorescence (Channel Cycling A.530/585hp) (E. coli AG100A; cycle 5): 3.591 | EtBr fluorescence (Channel Cycling A.530/585hp) (E. coli AG100A; cycle 6): 3.585 | EtBr fluorescence (Channel Cycling A.530/585hp) (E. coli AG100A; cycle 7): 3.6117 | EtBr fluorescence (Channel Cycling A.530/585hp) (E. coli AG100A; cycle 8): 3.567 | EtBr fluorescence (Channel Cycling A.530/585hp) (E. coli AG100A; cycle 45): 3.83 | EtBr fluorescence (Channel Cycling A.530/585hp) (E. coli AG100A; cycle 46): 3.859 | EtBr fluorescence (Channel Cycling A.530/585hp) (E. coli AG100A; cycle 47): 3.941 | EtBr fluorescence (Channel Cycling A.530/585hp) (E. coli AG100A; cycle 48): 3.831 | EtBr fluorescence (Channel Cycling A.530/585hp) (E. coli AG100A; cycle 49): 3.802 | EtBr fluorescence (Channel Cycling A.530/585hp) (E. coli AG100A; cycle 50): 3.904 | EtBr fluorescence (Channel Cycling A.530/585hp) (E. coli AG100A; cycle 51): 3.913 | EtBr fluorescence (Channel Cycling A.530/585hp) (E. coli AG100A; cycle 52): 3.836 | EtBr fluorescence (Channel Cycling A.530/585hp) (E. coli AG100A; cycle 53): 3.751 | EtBr fluorescence (Channel Cycling A.530/585hp) (E. coli AG100A; cycle 54): 3.734 | EtBr fluorescence (Channel Cycling A.530/585hp) (E. coli AG100A; cycle 55): 3.755 | EtBr fluorescence (Channel Cycling A.530/585hp) (E. coli AG100A; cycle 56): 3.914 | EtBr fluorescence (Channel Cycling A.530/585hp) (E. coli AG100A; cycle 57): 3.757 | EtBr fluorescence (Channel Cycling A.530/585hp) (E. coli AG100A; cycle 58): 3.7741 | EtBr fluorescence (Channel Cycling A.530/585hp) (E. coli AG100A; cycle 59): 3.81 | EtBr fluorescence (Channel Cycling A.530/585hp) (E. coli AG100A; cycle 60): 3.797 | EtBr fluorescence (Channel Cycling A.530/585hp) (E. coli AG100A; cycle 61): 3.749 | EtBr fluorescence (Channel Cycling A.530/585hp) (E. coli AG100; cycle 1, + glucose): 27.2203 | EtBr fluorescence (Channel Cycling A.530/585hp) (E. coli AG100; cycle 1, without glucose): 28.6428 | EtBr fluorescence (Channel Cycling A.530/585hp) (E. coli AG100; cycle 2, + glucose): 26.8654 | EtBr fluorescence (Channel Cycling A.530/585hp) (E. coli AG100; cycle 2, without glucose): 28.0719 | EtBr fluorescence (Channel Cycling A.530/585hp) (E. coli AG100; cycle 3, + glucose): 27.321 | EtBr fluorescence (Channel Cycling A.530/585hp) (E. coli AG100; cycle 3, without glucose): 28.0789 | EtBr fluorescence (Channel Cycling A.530/585hp) (E. coli AG100; cycle 4, + glucose): 27.7793 | EtBr fluorescence (Channel Cycling A.530/585hp) (E. coli AG100; cycle 4, without glucose): 27.7923 | EtBr fluorescence (Channel Cycling A.530/585hp) (E. coli AG100; cycle 5, + glucose): 27.8731 | EtBr fluorescence (Channel Cycling A.530/585hp) (E. coli AG100; cycle 5, without glucose): 28.1016 | EtBr fluorescence (Channel Cycling A.530/585hp) (E. coli AG100; cycle 6, + glucose): 28.7085 | EtBr fluorescence (Channel Cycling A.530/585hp) (E. coli AG100; cycle 6, without glucose): 27.8949 | EtBr fluorescence (Channel Cycling A.530/585hp) (E. coli AG100; cycle 7, + glucose): 28.8867 | EtBr fluorescence (Channel Cycling A.530/585hp) (E. coli AG100; cycle 7, without glucose): 28.2166 | EtBr fluorescence (Channel Cycling A.530/585hp) (E. coli AG100; cycle 8, + glucose): 29.4883 | EtBr fluorescence (Channel Cycling A.530/585hp) (E. coli AG100; cycle 8, without glucose): 28.5752 | EtBr fluorescence (Channel Cycling A.530/585hp) (E. coli AG100; cycle 9, + glucose): 29.85 | EtBr fluorescence (Channel Cycling A.530/585hp) (E. coli AG100; cycle 9, without glucose): 28.7691 | EtBr fluorescence (Channel Cycling A.530/585hp) (E. coli AG100; cycle 10, + glucose): 30.1902 | EtBr fluorescence (Channel Cycling A.530/585hp) (E. coli AG100; cycle 10, without glucose): 29.1814 | EtBr fluorescence (Channel Cycling A.530/585hp) (E. coli AG100; cycle 11, + glucose): 30.2907 | EtBr fluorescence (Channel Cycling A.530/585hp) (E. coli AG100; cycle 11, without glucose): 29.2805 | EtBr fluorescence (Channel Cycling A.530/585hp) (E. coli AG100; cycle 12, + glucose): 30.9827 | EtBr fluorescence (Channel Cycling A.530/585hp) (E. coli AG100; cycle 12, without glucose): 29.6425 | EtBr fluorescence (Channel Cycling A.530/585hp) (E. coli AG100; cycle 13, + glucose): 31.4798 | EtBr fluorescence (Channel Cycling A.530/585hp) (E. coli AG100; cycle 13, without glucose): 29.6207 | EtBr fluorescence (Channel Cycling A.530/585hp) (E. coli AG100; cycle 14, + glucose): 31.9618 | EtBr fluorescence (Channel Cycling A.530/585hp) (E. coli AG100; cycle 14, without glucose): 29.9123 | EtBr fluorescence (Channel Cycling A.530/585hp) (E. coli AG100; cycle 15, + glucose): 32.3424 | EtBr fluorescence (Channel Cycling A.530/585hp) (E. coli AG100; cycle 15, without glucose): 30.0665 | EtBr fluorescence (Channel Cycling A.530/585hp) (E. coli AG100; cycle 16, + glucose): 33.13 | EtBr fluorescence (Channel Cycling A.530/585hp) (E. coli AG100; cycle 16, without glucose): 30.8072 | EtBr fluorescence (Channel Cycling A.530/585hp) (E. coli AG100; cycle 17, + glucose): 32.8622 | EtBr fluorescence (Channel Cycling A.530/585hp) (E. coli AG100; cycle 17, without glucose): 30.7994 | EtBr fluorescence (Channel Cycling A.530/585hp) (E. coli AG100; cycle 18, + glucose): 33.7388 | EtBr fluorescence (Channel Cycling A.530/585hp) (E. coli AG100; cycle 18, without glucose): 30.7622 | EtBr fluorescence (Channel Cycling A.530/585hp) (E. coli AG100; cycle 19, + glucose): 33.8845 | EtBr fluorescence (Channel Cycling A.530/585hp) (E. coli AG100; cycle 19, without glucose): 31.3764 | EtBr fluorescence (Channel Cycling A.530/585hp) (E. coli AG100; cycle 20, + glucose): 33.9442
